From PMC7819943, “Rice protein-binding microarrays: a tool to detect cis-acting elements near promoter regions in rice”
The other results are listed elsewhere or left out.

Target: T1, OsSMF1 (Oryza sativa, UniProt Q6ZLB0 1-436)
T1 sequence: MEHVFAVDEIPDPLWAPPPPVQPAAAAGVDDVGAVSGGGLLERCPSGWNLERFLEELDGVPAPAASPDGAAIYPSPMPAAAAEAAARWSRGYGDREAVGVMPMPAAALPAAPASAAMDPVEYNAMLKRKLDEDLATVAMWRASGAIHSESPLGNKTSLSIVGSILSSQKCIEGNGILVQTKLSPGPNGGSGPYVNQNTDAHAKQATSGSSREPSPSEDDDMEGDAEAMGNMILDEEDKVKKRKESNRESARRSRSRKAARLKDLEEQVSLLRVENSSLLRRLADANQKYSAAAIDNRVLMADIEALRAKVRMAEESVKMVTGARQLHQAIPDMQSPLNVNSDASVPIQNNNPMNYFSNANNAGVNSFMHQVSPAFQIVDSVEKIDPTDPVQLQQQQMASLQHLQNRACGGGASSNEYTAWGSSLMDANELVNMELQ
Test: protein-binding microarray (RPBM); PBS, 2% BSA, 51.3 ng/ul salmon testes DNA, 50 uM zinc acetate, 200 nM TF, 25 C, 1 h; high values mean tight binding
Details: protein: recombinant; tags: N-terminal polyhistidine and DsRed monomer fusion (pET32a); chain copies: 2; label: CyDye5-dUTP incorporated in the synthesized complementary strand; 3' TTTTT single-stranded linker to array surface; dsDNA, one strand shown
Procedure, shortened: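 Per-feature fluorescence intensity (arbitrary units), read on an Axon 4000B scanner, is the binding signal. Transcription factors carrying an N-terminal polyhistidine tag and DsRed fusion were expressed in E. coli BL21-CodonPlus and purified on Ni–NTA. A custom Agilent array, made double-stranded by primer extension with Cy5-dUTP and blocked with 2% BSA, was incubated with 200 nM protein in PBS, 2% BSA, salmon testes DNA and 50 µM zinc acetate at 25 °C for 1 h and then washed.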

Row | Sequence | binding signal
1 | ATGCGGTTGTGTCTGACACGGACAAACTCAACGTGACATACGGAGTCACCTAGTGCAG | 5050 fluorescence intensity (a.u.)
2 | GATGTGGCAAATAACTATTTGCCACTGGACCCAAATGTCACGGAGTCACCTAGTGCAG | 32700 fluorescence intensity (a.u.)
3 | CATTCACGGCATCGCCACCTTGCCCACGTACCAGGGCCCCCGGAGTCACCTAGTGCAG | 4060 fluorescence intensity (a.u.)
4 | GCCAAGTCATCGTCCACGTGGCATAACACATAGGCAAGATCGGAGTCACCTAGTGCAG | 9300 fluorescence intensity (a.u.)
5 | AGGTGGCGGTCTAGCTTGACACTCCTTTGCCTTCCATAGTCGGAGTCACCTAGTGCAG | 3190 fluorescence intensity (a.u.)
6 | ATGATTTATTATGTTCTGCCCTTCTTTGTTGTGACAAAGTCGGAGTCACCTAGTGCAG | 3900 fluorescence intensity (a.u.)
7 | CGCCCATGATGAACGTCACCTACGCCTTCGTCAACGGCATCGGAGTCACCTAGTGCAG | 3650 fluorescence intensity (a.u.)
8 | ATTGAACAAGCTTTGAGCCTGATGTTCAAGGTGAGTTGAGCGGAGTCACCTAGTGCAG | 9190 fluorescence intensity (a.u.)
9 | CAGGTTTGACCGACCTTTCAACCGATCGACGCTACCGCACCGGAGTCACCTAGTGCAG | 20600 fluorescence intensity (a.u.)
10 | GCGTCTCTCAGCCACTCACCACGGCGACGTGTCATCCCATCGGAGTCACCTAGTGCAG | 8330 fluorescence intensity (a.u.)
11 | CACAATTGACGTGGCACCTTCTTCCTGCCGATGCTCTTTCCGGAGTCACCTAGTGCAG | 20100 fluorescence intensity (a.u.)
12 | CCCACACCAACGGTCGCGATGTGTCTCTGGTGACGTGGCACGGAGTCACCTAGTGCAG | 23100 fluorescence intensity (a.u.)
13 | TTTCCTAATAGTAGTACTTGACAGCCTATCACTCCACCAACGGAGTCACCTAGTGCAG | 3610 fluorescence intensity (a.u.)
14 | TTTAGAGAAGAGAAGTGATCCACGTGTCACCATCGCGAGGCGGAGTCACCTAGTGCAG | 22800 fluorescence intensity (a.u.)
15 | AACTTGTAGCCGAAGGCCACGCAAGAGGCGTTGGCCCGGCCGGAGTCACCTAGTGCAG | 3640 fluorescence intensity (a.u.)
16 | CCGCTAGTGTCCGAAACGGAAGGGCCTGTCAGAATTGTAGCGGAGTCACCTAGTGCAG | 28600 fluorescence intensity (a.u.)
17 | GGCTCTAAACCAATTCCGAAGCTGAGGTGGATTCACGGGCCGGAGTCACCTAGTGCAG | 7570 fluorescence intensity (a.u.)
18 | TCCATCTCCCACCCTTCCACCACTACCCACATCGTCTCGCCGGAGTCACCTAGTGCAG | 3240 fluorescence intensity (a.u.)
19 | GCTGCGAACTCGCCGCACGACGTGGGACTGGGTCCAGTCCCGGAGTCACCTAGTGCAG | 4070 fluorescence intensity (a.u.)
20 | ACAATATTATAGAAACGTATGATCAGCATGCTTCATAATGCGGAGTCACCTAGTGCAG | 3180 fluorescence intensity (a.u.)
21 | CTCCTTTGCATATCTCACTTCAGGAGGTGCTTACATCCAGCGGAGTCACCTAGTGCAG | 3300 fluorescence intensity (a.u.)

Row | Sequence | binding signal
22 | ATATGTACGGCCCAGATGGCTATGCACGTACTCCTATATGCGGAGTCACCTAGTGCAG | 3700 fluorescence intensity (a.u.)
23 | ATATTTATAATAAGTTTACGATATTACAATAACATTTGTCCGGAGTCACCTAGTGCAG | 30300 fluorescence intensity (a.u.)
24 | TGAACCAAACAACTTTGTGCTGAATCATCTATATCACCTGCGGAGTCACCTAGTGCAG | 6240 fluorescence intensity (a.u.)
25 | CAGTGGCTGACACGCGGGGTCGTGGGCCACGTCAATTCGACGGAGTCACCTAGTGCAG | 6700 fluorescence intensity (a.u.)
26 | CCATTCATGCCCGTGATATCCTGGCTCCACGAGCTCTGCTCGGAGTCACCTAGTGCAG | 59000 fluorescence intensity (a.u.)
27 | TTTGGAATGGCTGCACCTACGAGGGAAGTTACATGGAGCACGGAGTCACCTAGTGCAG | 29500 fluorescence intensity (a.u.)
28 | CCACGGAAACGGAAGCAGAGGCCAAGAGACGTGACCGCGTCGGAGTCACCTAGTGCAG | 3280 fluorescence intensity (a.u.)
29 | GACCCCACCTGTCATTCGAAGGGGTAACCACACACCTACGCGGAGTCACCTAGTGCAG | 3940 fluorescence intensity (a.u.)
30 | CTGGGTCCCGAAAATTCTGCACCGGCCTCTCTTAGGGTTTCGGAGTCACCTAGTGCAG | 10400 fluorescence intensity (a.u.)
31 | TAGCTCCCGAAGGTTCCAGAATCTTCGCAACTGCCTCCTTCGGAGTCACCTAGTGCAG | 19800 fluorescence intensity (a.u.)
32 | AGACTTAATCCCTTGTGCAACACGTGTCCCGTCACAATCTCGGAGTCACCTAGTGCAG | 7560 fluorescence intensity (a.u.)
33 | TTGCATTACTTTCTTAGGGTTTTCTCTTGATTGCACCTGCCGGAGTCACCTAGTGCAG | 24000 fluorescence intensity (a.u.)
34 | CGCATCCGCCGTCCGTCCAAACGCATCCGACGGTCCACGTCGGAGTCACCTAGTGCAG | 4950 fluorescence intensity (a.u.)
35 | TCGCAGTAATATGCCACCGTGGCGAATTCCCCAAAACAACCGGAGTCACCTAGTGCAG | 10200 fluorescence intensity (a.u.)
36 | AATGACCTTCCCTATAAGCTACTCCATACGTCACATTAAGCGGAGTCACCTAGTGCAG | 3160 fluorescence intensity (a.u.)
37 | GAGGTATCACCGTCCAGCTAAGCTGTTCAACTGCTGTATGCGGAGTCACCTAGTGCAG | 4160 fluorescence intensity (a.u.)
38 | ATAACATATATTGTAAACCCTACACATATCATCGCCAGGCCGGAGTCACCTAGTGCAG | 3640 fluorescence intensity (a.u.)
39 | ACTACTACTACGTGTATTAACCCCGTCACGATGAAAATGACGGAGTCACCTAGTGCAG | 18700 fluorescence intensity (a.u.)
40 | TAAGTTACGTGTATGATGACGACAGAAAACGTAAACCATTCGGAGTCACCTAGTGCAG | 3330 fluorescence intensity (a.u.)
41 | ACTCCCACGTGGGCCCAATATGTCAGCCCGCTAGTTCAGGCGGAGTCACCTAGTGCAG | 6760 fluorescence intensity (a.u.)
42 | GGCCGCGGCGGCGTCAACCGCCGCTCTCCCTTTGCCACCACGGAGTCACCTAGTGCAG | 3630 fluorescence intensity (a.u.)

From no. 22 up to 23, copied from above:
Row | Sequence | binding signal
22 | ATATGTACGGCCCAGATGGCTATGCACGTACTCCTATATGCGGAGTCACCTAGTGCAG | 3700 fluorescence intensity (a.u.)
23 | ATATTTATAATAAGTTTACGATATTACAATAACATTTGTCCGGAGTCACCTAGTGCAG | 30300 fluorescence intensity (a.u.)
